Laboratory results as given in PMC3380004.

By UniProt entry, the sequences of proteins in these tests, tags left out.
UniProt Q9EPN1: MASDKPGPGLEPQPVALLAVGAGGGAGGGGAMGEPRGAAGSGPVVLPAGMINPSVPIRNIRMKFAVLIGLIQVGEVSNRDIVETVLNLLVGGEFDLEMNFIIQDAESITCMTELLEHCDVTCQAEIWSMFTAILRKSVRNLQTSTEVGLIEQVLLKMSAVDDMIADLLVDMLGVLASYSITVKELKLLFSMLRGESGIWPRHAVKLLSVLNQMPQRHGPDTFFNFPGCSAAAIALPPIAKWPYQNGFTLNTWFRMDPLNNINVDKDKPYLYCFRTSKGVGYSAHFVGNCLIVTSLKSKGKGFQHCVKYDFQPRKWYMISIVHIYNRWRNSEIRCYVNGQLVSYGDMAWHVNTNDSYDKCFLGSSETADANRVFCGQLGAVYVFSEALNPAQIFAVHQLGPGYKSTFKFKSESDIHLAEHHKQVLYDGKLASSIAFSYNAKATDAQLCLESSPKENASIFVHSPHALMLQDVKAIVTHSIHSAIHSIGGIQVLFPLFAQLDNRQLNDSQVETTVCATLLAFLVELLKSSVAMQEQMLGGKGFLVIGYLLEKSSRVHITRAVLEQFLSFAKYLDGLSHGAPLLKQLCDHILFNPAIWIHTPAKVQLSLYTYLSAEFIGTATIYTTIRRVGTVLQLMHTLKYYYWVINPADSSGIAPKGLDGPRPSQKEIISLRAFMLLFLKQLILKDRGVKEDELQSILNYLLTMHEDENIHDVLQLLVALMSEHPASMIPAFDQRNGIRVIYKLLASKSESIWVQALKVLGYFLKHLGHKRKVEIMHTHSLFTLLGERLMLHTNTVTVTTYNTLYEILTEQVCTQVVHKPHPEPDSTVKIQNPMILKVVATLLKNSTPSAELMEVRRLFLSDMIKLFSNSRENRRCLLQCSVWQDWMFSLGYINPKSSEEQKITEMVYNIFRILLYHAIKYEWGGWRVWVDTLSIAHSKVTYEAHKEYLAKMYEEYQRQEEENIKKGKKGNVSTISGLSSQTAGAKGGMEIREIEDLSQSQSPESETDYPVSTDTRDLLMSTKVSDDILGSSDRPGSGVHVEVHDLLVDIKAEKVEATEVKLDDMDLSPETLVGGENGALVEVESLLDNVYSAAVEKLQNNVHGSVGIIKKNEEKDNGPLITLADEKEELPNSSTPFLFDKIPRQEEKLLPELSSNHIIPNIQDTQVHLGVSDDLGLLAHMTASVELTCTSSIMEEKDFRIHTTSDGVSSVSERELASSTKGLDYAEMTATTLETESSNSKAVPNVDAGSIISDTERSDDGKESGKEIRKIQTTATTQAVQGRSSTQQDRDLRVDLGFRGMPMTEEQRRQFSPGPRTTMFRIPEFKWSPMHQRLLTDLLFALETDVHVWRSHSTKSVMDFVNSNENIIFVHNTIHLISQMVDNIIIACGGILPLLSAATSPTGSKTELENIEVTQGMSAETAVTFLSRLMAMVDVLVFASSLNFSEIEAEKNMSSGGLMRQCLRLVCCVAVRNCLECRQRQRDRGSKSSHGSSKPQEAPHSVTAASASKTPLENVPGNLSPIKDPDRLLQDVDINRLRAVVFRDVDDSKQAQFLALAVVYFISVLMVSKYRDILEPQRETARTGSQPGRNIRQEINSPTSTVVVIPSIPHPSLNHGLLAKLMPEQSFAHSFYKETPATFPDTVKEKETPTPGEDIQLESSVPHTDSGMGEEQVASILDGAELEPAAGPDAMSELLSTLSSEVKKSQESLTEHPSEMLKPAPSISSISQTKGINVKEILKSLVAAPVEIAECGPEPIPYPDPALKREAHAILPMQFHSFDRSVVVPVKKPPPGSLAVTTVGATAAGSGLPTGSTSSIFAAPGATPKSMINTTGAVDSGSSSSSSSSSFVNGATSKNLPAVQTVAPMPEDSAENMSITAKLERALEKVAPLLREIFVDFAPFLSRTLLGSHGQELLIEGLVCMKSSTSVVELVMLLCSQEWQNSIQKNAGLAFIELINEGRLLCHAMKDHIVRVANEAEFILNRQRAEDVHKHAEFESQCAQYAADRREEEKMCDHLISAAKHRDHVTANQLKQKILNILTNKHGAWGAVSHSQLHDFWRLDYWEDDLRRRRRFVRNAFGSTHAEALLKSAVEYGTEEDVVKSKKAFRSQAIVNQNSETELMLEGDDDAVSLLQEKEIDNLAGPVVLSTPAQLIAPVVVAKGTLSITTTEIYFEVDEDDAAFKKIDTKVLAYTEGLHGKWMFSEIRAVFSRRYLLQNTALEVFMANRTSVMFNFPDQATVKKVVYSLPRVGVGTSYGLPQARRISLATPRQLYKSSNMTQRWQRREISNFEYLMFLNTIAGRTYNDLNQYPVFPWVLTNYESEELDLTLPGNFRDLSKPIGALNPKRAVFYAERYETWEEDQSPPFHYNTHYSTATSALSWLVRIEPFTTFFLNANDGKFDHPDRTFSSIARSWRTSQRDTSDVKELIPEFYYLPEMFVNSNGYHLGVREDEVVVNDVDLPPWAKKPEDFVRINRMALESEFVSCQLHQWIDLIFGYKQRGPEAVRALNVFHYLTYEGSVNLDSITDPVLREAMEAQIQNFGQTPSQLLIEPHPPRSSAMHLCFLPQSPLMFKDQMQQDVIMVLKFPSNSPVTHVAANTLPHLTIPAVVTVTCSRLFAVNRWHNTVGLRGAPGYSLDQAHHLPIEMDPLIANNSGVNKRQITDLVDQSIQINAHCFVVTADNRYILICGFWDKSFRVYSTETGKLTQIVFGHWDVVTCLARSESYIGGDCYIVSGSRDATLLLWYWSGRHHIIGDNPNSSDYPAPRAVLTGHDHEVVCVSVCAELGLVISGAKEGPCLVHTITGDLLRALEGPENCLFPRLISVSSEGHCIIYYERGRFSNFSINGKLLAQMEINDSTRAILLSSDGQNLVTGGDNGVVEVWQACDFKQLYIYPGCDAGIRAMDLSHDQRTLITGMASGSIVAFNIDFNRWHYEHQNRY
UniProt P31324: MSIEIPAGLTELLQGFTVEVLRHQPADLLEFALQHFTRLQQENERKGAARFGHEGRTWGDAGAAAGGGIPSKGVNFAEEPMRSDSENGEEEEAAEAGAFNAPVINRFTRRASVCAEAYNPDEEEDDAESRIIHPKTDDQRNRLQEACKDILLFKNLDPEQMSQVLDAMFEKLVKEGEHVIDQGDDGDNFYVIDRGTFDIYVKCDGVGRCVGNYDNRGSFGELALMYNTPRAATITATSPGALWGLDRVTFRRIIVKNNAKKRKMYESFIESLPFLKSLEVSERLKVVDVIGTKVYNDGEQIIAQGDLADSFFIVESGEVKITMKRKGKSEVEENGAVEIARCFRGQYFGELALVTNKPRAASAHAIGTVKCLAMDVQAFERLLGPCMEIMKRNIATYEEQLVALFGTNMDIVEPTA
UniProt Q64332: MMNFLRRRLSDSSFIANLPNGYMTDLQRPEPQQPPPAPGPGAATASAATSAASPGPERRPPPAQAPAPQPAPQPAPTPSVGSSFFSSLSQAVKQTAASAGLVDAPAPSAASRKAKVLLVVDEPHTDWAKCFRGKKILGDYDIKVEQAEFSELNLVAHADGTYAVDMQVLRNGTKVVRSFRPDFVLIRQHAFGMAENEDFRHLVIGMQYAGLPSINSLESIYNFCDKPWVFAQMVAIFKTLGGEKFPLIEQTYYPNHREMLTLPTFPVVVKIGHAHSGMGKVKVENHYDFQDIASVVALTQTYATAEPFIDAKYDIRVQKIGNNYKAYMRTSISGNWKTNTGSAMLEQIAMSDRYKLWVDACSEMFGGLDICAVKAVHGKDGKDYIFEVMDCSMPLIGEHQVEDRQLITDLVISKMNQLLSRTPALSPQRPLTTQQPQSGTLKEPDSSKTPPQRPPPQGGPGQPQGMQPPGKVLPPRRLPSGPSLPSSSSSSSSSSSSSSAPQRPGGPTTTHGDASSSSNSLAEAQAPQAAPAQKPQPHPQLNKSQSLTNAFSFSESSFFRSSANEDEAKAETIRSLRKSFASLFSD
UniProt P68368: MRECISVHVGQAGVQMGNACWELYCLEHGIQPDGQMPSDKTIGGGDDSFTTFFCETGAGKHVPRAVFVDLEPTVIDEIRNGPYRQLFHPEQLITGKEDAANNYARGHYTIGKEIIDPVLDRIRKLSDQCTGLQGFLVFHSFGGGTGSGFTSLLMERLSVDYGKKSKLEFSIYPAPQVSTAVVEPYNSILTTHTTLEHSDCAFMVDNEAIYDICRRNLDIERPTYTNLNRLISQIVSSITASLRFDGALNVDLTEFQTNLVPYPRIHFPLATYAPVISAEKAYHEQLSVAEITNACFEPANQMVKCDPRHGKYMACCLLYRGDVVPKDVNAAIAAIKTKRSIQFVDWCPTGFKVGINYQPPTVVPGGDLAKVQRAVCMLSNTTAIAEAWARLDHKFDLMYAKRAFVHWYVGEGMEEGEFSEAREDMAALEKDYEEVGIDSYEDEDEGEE
UniProt O88487: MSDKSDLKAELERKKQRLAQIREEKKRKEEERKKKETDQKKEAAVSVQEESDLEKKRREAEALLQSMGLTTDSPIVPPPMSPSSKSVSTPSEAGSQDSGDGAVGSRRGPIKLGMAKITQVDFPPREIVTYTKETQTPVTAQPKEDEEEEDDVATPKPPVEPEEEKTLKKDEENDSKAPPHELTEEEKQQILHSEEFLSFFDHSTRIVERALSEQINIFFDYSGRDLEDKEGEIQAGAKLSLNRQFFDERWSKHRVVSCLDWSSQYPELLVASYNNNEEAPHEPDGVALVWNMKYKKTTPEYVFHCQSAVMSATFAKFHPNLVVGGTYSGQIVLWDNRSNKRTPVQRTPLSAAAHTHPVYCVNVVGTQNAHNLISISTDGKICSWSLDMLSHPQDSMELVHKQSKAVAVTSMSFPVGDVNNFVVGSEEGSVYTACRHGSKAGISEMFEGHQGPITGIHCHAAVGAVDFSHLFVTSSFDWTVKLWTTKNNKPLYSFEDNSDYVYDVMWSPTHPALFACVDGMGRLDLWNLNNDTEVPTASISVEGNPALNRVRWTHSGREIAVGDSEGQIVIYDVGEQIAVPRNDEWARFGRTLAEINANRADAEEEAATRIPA
UniProt Q9D6F9: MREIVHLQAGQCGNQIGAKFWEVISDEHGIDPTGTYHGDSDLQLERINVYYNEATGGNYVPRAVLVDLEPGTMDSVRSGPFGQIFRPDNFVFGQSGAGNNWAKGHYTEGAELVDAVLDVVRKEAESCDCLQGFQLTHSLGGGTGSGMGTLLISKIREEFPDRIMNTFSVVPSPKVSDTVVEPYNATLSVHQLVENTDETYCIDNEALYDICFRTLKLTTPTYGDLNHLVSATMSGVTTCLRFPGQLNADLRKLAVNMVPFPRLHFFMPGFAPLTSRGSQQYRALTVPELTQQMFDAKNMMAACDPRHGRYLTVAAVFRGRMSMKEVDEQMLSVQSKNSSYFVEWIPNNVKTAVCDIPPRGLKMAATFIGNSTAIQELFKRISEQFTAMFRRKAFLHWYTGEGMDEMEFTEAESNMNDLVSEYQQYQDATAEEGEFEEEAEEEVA
UniProt P43006: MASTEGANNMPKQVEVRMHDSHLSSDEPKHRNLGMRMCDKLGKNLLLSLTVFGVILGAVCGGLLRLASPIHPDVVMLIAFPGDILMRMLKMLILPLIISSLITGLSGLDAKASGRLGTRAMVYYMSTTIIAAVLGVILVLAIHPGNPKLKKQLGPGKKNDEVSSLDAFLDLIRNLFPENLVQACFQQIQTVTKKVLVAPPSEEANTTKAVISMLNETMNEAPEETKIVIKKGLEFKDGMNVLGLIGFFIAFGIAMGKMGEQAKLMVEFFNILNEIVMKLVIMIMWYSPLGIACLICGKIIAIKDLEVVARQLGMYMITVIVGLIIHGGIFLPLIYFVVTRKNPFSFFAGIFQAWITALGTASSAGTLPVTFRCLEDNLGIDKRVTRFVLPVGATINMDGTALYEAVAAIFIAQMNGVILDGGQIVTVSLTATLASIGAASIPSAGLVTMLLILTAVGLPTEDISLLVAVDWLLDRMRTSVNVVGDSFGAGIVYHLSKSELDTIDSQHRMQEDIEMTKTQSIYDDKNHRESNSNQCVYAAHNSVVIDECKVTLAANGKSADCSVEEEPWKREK
UniProt Q6PDL0: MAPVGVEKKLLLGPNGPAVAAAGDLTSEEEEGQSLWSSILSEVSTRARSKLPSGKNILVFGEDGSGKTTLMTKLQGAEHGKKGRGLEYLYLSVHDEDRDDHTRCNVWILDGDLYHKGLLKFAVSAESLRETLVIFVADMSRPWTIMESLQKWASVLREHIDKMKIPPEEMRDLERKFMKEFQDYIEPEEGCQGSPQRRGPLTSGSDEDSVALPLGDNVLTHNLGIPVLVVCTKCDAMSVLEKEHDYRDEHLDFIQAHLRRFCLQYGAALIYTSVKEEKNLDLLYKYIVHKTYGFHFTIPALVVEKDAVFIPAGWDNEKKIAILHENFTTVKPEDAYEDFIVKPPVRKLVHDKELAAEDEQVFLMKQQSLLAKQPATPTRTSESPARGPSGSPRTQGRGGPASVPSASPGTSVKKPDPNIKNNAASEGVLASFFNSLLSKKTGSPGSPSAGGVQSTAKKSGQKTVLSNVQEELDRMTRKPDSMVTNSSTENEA

B1: Dihydrolipoyl dehydrogenase, mitochondrial (protein, UniProt O08749 36-509)
chain: ADQPIEADVTVIGSGPGGYVAAIKSAQLGFKTVCIEKNETLGGTCLNVGCIPSKALLNNSHYYHMAHGKDFASRGIEIPEVRLNLEKMMEQKHSAVKALTGGIAHLFKQNKVVHVNGFGKITGKNQVTATKADGSTQVIDTKNILVATGSEVTPFPGITIDEDTIVSSTGALSLKKVPEKLVVIGAGVIGVELGSVWQRLGADVTAVEFLGHVGGIGIDMEISKNFQRILQRQGFKFKLNTKVTGATKKSDGKIDVSVEAASGGKAEVITCDVLLVCIGRRPFTQNLGLEELGIELDPKGRIPVNNRFQTKIPNIYAIGDVVAGPMLAHKAEDEGIICVEGMAGGAVHIDYNCVPSVIYTHPEVAWVGKSEEQLKEEGIEFKIGKFPFAANSRAKTNADTDGMVKILGHKSTDRVLGAHILGPGAGEMVNEAALALEYGASCEDIARVCHAHPTLSEAFREANLAAAFGKPINF
B2: ERC protein 2 (protein, UniProt Q6PH08 1-957)
chain: MYGSARTISNLEGSPSRSPRLPRSPRLGHRRTSSGGGGGTGKTLSMENIQSLNAAYATSGPMYLSDHEGVASTTYPKGTMTLGRATNRAVYGGRVTAMGSSPNIASAGLSHTDVLSYTDQHGGLSGSSHHHHHQVPSMLRQVRDSTMLDLQAQLKELQRENDLLRKELDIKDSKLGSSMNSIKTFWSPELKKERVLRKEEAARMSVLKEQMRVSHEENQHLQLTIQALQDELRTQRDLNHLLQQESGNRGAEHFTIELTEENFRRLQAEHDRQAKELFLLRKTLEEMELRIETQKQTLNARDESIKKLLEMLQSKGLPSKSLEDDNERTRRMAEAESQVSHLEVILDQKEKENIHLREELHRRSQLQPEPAKTKALQTVIEMKDTKIASLERNIRDLEDEVQMLKANGVLNTEDREEEIKQIEVYKSHSKFMKTKIDQLKQELSKKESELLALQTKLETLSNQNSDCKQHIEVLKESLTAKEQRAAILQTEVDALRLRLEEKESFLNKKTKQLQDLTEEKGTLAGEIRDMKDMLEVKERKINVLQKKIENLQEQLRDKDKQLTNLKDRVKSLQTDSSNTDTALATLEEALSEKERIIERLKEQRERDDRERLEEIESFRKENKDLKEKVNALQAELTEKESSLIDLKEHASSLASAGLKRDSKLKSLEIAIEQKKEECNKLEAQLKKAHNIEDDSRMNPEFADRLKQLDKEASYYRDECGKAQAEVDRLLEILKEVENEKNDKDKKIAELESLTLRHMKDQNKKVANLKYNQQLEKKKNAQLLEEVRRREDSMVDNSQHLQIEELMNALEKTRQELDATKARLASTQQSLAEKEAHLANLRIERRKQLEEILEMKQEALLAAISEKDANIALLELSASKKKKTQEEVMALKREKDRLVHQLKQQTQNRMKLMADNYDEDHHHYHHHHHHHHHRSPGRSQHSNHRPSPDQDDEEGIWA

Molecular target: Neurobeachin (mouse (endogenous in mouse brain)) (UniProt Q9EPN1)
Assay: affinity purification with mass spectrometry; IP with α-Nbea antibody from the P2+microsomes fraction of P84 mouse brain solubilised with 1% n-Dodecyl β-D-maltoside (DDM), protein A/G agarose, 4°C; controls: empty beads, E18 KO IP; LTQ-Orbitrap

binding, binds:
cAMP-dependent protein kinase type II-beta regulatory subunit (from UniProt P31324 1-416)
Synapsin-2; Synapsin II (from UniProt Q64332 1-586)
Tubulin, alpha-4A chain (from UniProt P68368 1-448)
Synaptosomal-associated protein 25 (from UniProt P60879 1-206)
Cytoplasmic dynein 1 intermediate chain 2 (from UniProt O88487 1-612)
Tubulin beta-4A chain (from UniProt Q9D6F9 1-444)
Excitatory amino acid transporter 2 (from UniProt P43006 1-572)
CAP-Gly domain-containing linker protein 2 (from UniProt Q9Z0H8 1-1047)
Cytoplasmic dynein 1 light intermediate chain 2 (from UniProt Q6PDL0 1-492)
B1
B2

No constants are given. Whether binding was seen depends on the method and setting. Binding seen in cells or lysates may run through a third protein. These calls come from enrichment with a bait or labelling near it, and not all partners need be listed.
